These results are taken from the odorant receptor screen of Mainland et al. (2015).

The structures appear in SMILES notation. Values joined by “and” are separate entries in the source; they are usually repeats but may differ in a detail not shown here. Identical values can stand only once. The list shows a part of the results. Single wells; the ratio to wells without odorant was worked out here, and repeats agree poorly.

Among the test systems are OR7C2 clone 1292; OR7D2 clone 1405; OR7D4 clone 1298; OR7E24 P242S clone 1314; OR7G1 clone 1295; OR7G2 clone 1475; OR7G3 clone 1297; OR8A1 clone 1503; OR8B12 clone 1731; OR8B4 E22G clone 1227; OR8B8 clone 1226; OR8B8 clone 1504; OR8D1 clone 1142; OR8D2 clone 1179; OR8G1 clone 1395; OR8G5 clone 1323.
Test in all cases: odorant receptor activation (CRE luciferase / Renilla) (fold of no-odor wells); higher = more activation
What all share (conditions): 100 µM

Assay [1] relates to OR7G2 V263A/F281V clone 1312.
Assay [2] concerns OR8B3 H20R/Q24R/V34I/M114I clone 1727.
The subject of assay [3] is OR8B4 Y131H/C140F/C178R clone 1440.
Assay [4] deals with OR8D4 C120Y/R133K/F200L/L283P/R298K clone 1072.

Consider `c1cnccn1` [pyrazine], for which the odorant receptor activation in the assay on OR7C2 clone 1292 turned out to be 0.771; in the assay with OR7D2 clone 1405, 1.38; in the assay with OR7D4 clone 1298, 0.796; in the assay on OR7E24 P242S clone 1314, 1.04; in the assay on OR7G1 clone 1295, 0.818; in assay [1], 0.911. In addition, the odorant receptor activation came to 0.618 in the assay with OR7G2 clone 1475; 0.804 in the assay on OR7G3 clone 1297; 0.74 with OR8A1 clone 1503; 0.796 in the assay with OR8B12 clone 1731; 1.01 in assay [2]; 1.23 with OR8B4 E22G clone 1227. Also, the odorant receptor activation amounted to 1.06 in assay [3]; 0.944 in the assay on OR8B8 clone 1226; 0.922 in the assay on OR8B8 clone 1504; 0.873 in the assay with OR8D1 clone 1142; 1.01 in the assay with OR8D2 clone 1179; 0.988 in assay [4]. The odorant receptor activation in the assay on OR8G1 clone 1395 stood at 1.22; in the assay with OR8G5 clone 1323, 0.793.
`C=CCc1ccc(OC)c(OC)c1` [eugenol methyl ether]: the odorant receptor activation with OR7C2 clone 1292 was 1.29; in the assay with OR7D2 clone 1405, 1.5; in the assay with OR7D4 clone 1298 it was 1.57; with OR7E24 P242S clone 1314, 1.34; in the assay with OR7G1 clone 1295 it was 1.6; in assay [1] it was 1.42. Besides, the odorant receptor activation in the assay with OR7G2 clone 1475 was 1.05; in the assay on OR7G3 clone 1297 it was 1.5; with OR8A1 clone 1503 it was 2.23; in the assay with OR8B12 clone 1731, 0.798; in assay [2], 0.628; in the assay on OR8B4 E22G clone 1227, 1.67. The odorant receptor activation was 1.58 in [3]; 1.65 with OR8B8 clone 1226; 1.36 in the assay with OR8B8 clone 1504; 1.91 in the assay on OR8D1 clone 1142; 1.38 in the assay with OR8D2 clone 1179; 2.03 in [4]. For the same molecule, the odorant receptor activation in the assay on OR8G1 clone 1395 came to 1.67; in the assay on OR8G5 clone 1323, 1.51.
Turning to `CC1CCC(C(C)C)C(O)C1` (single isomer, unassigned; (+)) [(+)-menthol], the odorant receptor activation in the assay on OR7C2 clone 1292 came out at 0.811; with OR7D2 clone 1405, 1.61; in the assay with OR7D4 clone 1298, 0.907; with OR7E24 P242S clone 1314, 0.664; with OR7G1 clone 1295, 0.82; in assay [1], 1.01. Further, the odorant receptor activation with OR7G2 clone 1475 was determined as 1.06; in the assay on OR7G3 clone 1297 it was 0.558; in the assay with OR8A1 clone 1503 it was 1.18; in the assay with OR8B12 clone 1731, 0.834; in assay [2], 0.109; in the assay on OR8B4 E22G clone 1227, 1.12. Besides, the odorant receptor activation in [3] amounted to 1.06; in the assay on OR8B8 clone 1226 it was 1.01; with OR8B8 clone 1504 it was 0.928; in the assay on OR8D1 clone 1142, 1.1; in the assay on OR8D2 clone 1179, 1.01; in assay [4] it was 2.34. For the same molecule, the figures for the odorant receptor activation with OR8G1 clone 1395 and in the assay with OR8G5 clone 1323 were 0.969 and 0.946, respectively.
Take `CC12CCC(CC1)C(C)(C)O2` [cineole]: the odorant receptor activation is 0.905 in the assay with OR7C2 clone 1292; 0.272 in the assay with OR7D2 clone 1405; 0.931 in the assay on OR7D4 clone 1298; 0.662 with OR7E24 P242S clone 1314; 0.899 with OR7G1 clone 1295; 0.934 in assay [1]. The odorant receptor activation with OR7G2 clone 1475 came out at 1.06; in the assay on OR7G3 clone 1297 it was 0.863; in the assay on OR8A1 clone 1503 it was 1.06; in the assay on OR8B12 clone 1731, 0.879; in [2] it was 0.659; in the assay with OR8B4 E22G clone 1227, 0.908. Besides, the odorant receptor activation in assay [3] stood at 0.112; with OR8B8 clone 1226, 0.759; in the assay with OR8B8 clone 1504 it was 0.849; in the assay on OR8D1 clone 1142 it was 0.772; in the assay with OR8D2 clone 1179, 0.809; in assay [4], 0.867. In addition, the odorant receptor activation in the assay with OR8G1 clone 1395 is 0.213; with OR8G5 clone 1323, 0.961.
Take `CC(=O)OCC=C(C)CCC=C(C)C` [geranyl acetate]: the odorant receptor activation with OR7C2 clone 1292 is 1.05 and 1.39; in the assay on OR7D2 clone 1405 it was 1.28; in the assay with OR7D4 clone 1298, 0.87 and 1.38; in the assay on OR7E24 P242S clone 1314, 1.33 and 1.11; with OR7G1 clone 1295 it was 0.942 and 1.08; in assay [1], 1.68 and 1.03. Besides, the odorant receptor activation is 1.18 and 1.49 with OR7G2 clone 1475; 0.928 and 1.01 in the assay with OR7G3 clone 1297; 1.02 and 1.26 in the assay on OR8A1 clone 1503; 1.12 in the assay on OR8B12 clone 1731; 1.24 in assay [2]; 0.912 in the assay on OR8B4 E22G clone 1227. Also, the odorant receptor activation was 1.1 in [3]; 1 with OR8B8 clone 1226; 0.919 and 1.39 with OR8B8 clone 1504; 0.995 in the assay with OR8D1 clone 1142; 1.08 in the assay on OR8D2 clone 1179; 1.68 in [4]. For the same molecule, the odorant receptor activation is 0.873 in the assay with OR8G1 clone 1395; 0.701 and 1.06 with OR8G5 clone 1323.
`CCCC(=O)O` [butyric acid]: the odorant receptor activation in the assay with OR7C2 clone 1292 came to 0.636; with OR7D2 clone 1405, 0.304; in the assay on OR7D4 clone 1298 it was 0.771; with OR7E24 P242S clone 1314 it was 0.699; with OR7G1 clone 1295, 0.968; in assay [1], 0.973. Further, the odorant receptor activation with OR7G2 clone 1475 is 1.38; in the assay with OR7G3 clone 1297 it was 0.772; in the assay on OR8A1 clone 1503, 1.2; with OR8B12 clone 1731, 0.993; in assay [2], 0.51; in the assay on OR8B4 E22G clone 1227, 1.04. The odorant receptor activation came to 0.131 in assay [3]; 0.884 in the assay with OR8B8 clone 1226; 1.22 with OR8B8 clone 1504; 1.14 in the assay with OR8D1 clone 1142; 1.14 with OR8D2 clone 1179; 1 in assay [4]. Besides, the values for the odorant receptor activation with OR8G1 clone 1395 and with OR8G5 clone 1323 were 0.222 and 0.832, respectively.
